# Measured values reported in PubChem BioAssay (EPA / NIEHS).
# Chains of the proteins cited; added tags and fusions are not shown. Lines headed by an entry give the natural chain unless they say otherwise; changes in a name come on top.
# UniProt P03372, whole entry, looked up: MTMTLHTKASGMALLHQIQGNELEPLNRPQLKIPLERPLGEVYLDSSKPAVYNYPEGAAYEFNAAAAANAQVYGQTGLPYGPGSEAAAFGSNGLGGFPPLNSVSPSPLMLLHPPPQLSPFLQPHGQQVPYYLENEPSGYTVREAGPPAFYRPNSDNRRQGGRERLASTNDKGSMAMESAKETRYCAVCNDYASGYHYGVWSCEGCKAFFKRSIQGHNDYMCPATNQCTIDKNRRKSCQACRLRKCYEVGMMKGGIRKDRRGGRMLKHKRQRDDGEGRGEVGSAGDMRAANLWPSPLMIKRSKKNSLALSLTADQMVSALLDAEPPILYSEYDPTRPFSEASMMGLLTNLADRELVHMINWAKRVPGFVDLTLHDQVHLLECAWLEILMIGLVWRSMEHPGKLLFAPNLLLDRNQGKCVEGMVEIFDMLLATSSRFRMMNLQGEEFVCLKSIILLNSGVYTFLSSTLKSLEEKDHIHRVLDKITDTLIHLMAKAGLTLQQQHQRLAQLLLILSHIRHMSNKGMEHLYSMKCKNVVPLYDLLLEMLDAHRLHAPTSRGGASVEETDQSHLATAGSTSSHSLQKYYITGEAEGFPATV
# UniProt Q92731, whole entry, looked up: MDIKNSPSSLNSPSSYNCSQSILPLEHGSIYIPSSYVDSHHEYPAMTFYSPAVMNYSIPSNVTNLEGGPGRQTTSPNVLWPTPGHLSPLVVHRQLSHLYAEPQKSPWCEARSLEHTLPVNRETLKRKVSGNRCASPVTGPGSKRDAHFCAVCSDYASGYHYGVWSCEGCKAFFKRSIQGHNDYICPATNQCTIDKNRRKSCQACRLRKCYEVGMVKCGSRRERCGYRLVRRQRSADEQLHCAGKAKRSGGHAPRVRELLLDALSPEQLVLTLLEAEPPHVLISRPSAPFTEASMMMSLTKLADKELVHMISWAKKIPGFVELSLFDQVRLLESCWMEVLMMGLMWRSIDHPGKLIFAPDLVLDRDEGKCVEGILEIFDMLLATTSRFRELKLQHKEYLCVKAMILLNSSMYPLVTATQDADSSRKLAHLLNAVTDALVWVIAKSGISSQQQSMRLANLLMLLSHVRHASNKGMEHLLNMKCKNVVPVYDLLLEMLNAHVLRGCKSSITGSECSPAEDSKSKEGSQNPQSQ
# UniProt P10275: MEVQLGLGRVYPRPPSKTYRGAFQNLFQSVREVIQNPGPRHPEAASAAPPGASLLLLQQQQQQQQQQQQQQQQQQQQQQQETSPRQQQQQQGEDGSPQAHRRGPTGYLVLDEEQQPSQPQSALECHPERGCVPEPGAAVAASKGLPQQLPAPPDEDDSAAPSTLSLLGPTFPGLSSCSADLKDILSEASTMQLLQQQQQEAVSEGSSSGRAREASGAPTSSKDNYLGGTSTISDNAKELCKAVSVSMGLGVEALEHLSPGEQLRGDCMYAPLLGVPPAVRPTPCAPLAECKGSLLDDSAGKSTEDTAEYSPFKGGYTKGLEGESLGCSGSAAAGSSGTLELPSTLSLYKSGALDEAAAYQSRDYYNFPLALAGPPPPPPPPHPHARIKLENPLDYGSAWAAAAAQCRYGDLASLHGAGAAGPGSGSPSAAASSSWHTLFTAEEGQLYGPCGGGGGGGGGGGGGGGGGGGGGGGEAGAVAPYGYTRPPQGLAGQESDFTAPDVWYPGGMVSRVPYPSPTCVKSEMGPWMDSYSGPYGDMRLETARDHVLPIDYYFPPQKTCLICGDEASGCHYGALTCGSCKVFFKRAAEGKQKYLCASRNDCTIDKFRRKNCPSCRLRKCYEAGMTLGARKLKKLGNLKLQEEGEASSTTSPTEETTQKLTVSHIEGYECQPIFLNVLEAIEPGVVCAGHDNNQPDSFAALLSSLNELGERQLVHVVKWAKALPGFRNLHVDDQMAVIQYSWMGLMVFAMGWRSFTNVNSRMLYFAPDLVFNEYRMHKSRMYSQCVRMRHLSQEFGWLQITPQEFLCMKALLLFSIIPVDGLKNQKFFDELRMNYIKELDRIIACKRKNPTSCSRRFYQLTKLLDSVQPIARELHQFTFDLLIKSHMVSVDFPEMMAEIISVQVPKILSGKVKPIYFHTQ
# Inconclusive results, whose numbers are uncertain, are shown with a selection of clear calls. Potencies beside an inconclusive call are fits to weak or partial responses and may not hold up. Calls of active or inactive are those of the source. How the source made its calls: active means hit-call score of the fitted dose curve at least 0.9, where 1 is the maximum; inconclusive means response in the unintended direction; inactive means score below 0.9.
# How the values were obtained:
# [1] = target: T1, Estrogen receptor (Homo sapiens) + Estrogen receptor beta (Homo sapiens) (UniProt P03372+Q92731); test: OT_ER_ERaERb_0480: Odyssey Thera (OT) 8-hour HEK293T Protein-Complementation Assay for Estrogen Receptor-alpha/-beta Heterodimer (AID 2283352)
# How it was run: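 Fluorescence increase from reconstituted reporter fragments, quantified by laser scanning cytometer, reflects ER-alpha/ER-beta heterodimer formation in human HEK293T cells. Exposure 8 h; positive-direction fitting against DMSO vehicle.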
# [2] = target: Estrogen receptor beta (Homo sapiens) (UniProt Q92731); test: OT_ER_ERbERb_0480: Odyssey Thera (OT) 8-hour HEK293T Protein-Complementation Assay for Estrogen Receptor-beta/-beta Homodimer (AID 2283357);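 further: active means signal gain over DMSO baseline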
# How it was run: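 Fluorescence gain from complemented reporter fragments on ER-beta LBD homodimer in HEK293T was quantified against DMSO controls after 8 h treatment, fixation in 4% formaldehyde and Draq5 staining.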
# [3] = target: Androgen Receptor/SRC-1 Co-activator, AR (gene 367) (UniProt P10275); test: OT_AR_ARSRC1_0480: Odyssey Thera (OT) 8-hour HEK293T Protein-Complementation Assay for Androgen Receptor/SRC-1 Co-activator (AID 2283354);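 further: hits raise the complementation signal above DMSO so AC50 marks enhancers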
# How it was run: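 After 8 h dosing, stably expressing HEK293T cells with split-Venus AR/SRC-1 fusions were imaged (488, 635nm). The 488nm N/C ratio per image gave the endpoint, analysed in the positive direction against DMSO.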
# [4] = target: T1, Estrogen receptor (Homo sapiens) + Estrogen receptor beta (Homo sapiens); test: OT_ER_ERaERb_1440: Odyssey Thera (OT) 24-hour HEK293T Protein-Complementation Assay for Estrogen Receptor-alpha/-beta Homodimer (AID 2283356);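 further: heteromer of ER alpha and ER beta binding domains; hits raise reporter fluorescence and both agonists and antagonists give an increase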
# How it was run: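 Fragment complementation between ER alpha (310-547) and ER beta (263-489) ligand-binding domains in HEK293T cells; signal read 24 h post-dosing by laser scanning cytometer. Gain of fluorescence relative to DMSO fitted.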
smiles,measurement,setting,value
CCCCC(CC)COS(=O)(=O)O (centres undefined),outcome,[1],inactive
same,AC50,[2],inconclusive: 50 µM
CCCCCCCCCCC,AC50,[3],inconclusive: 50 µM
same,AC50,[2],inconclusive: 50 µM
CCCCCCCC(=O)N(C)C,AC50,[1],inconclusive: 50 µM
O=C[C@@H](O)[C@H](O)[C@H](O)CO,AC50,[3],inconclusive: 50 µM
COc1ccc([N+](=O)[O-])cc1N,outcome,[4],inactive
OCc1ccccc1,AC50,[3],inconclusive: 50 µM
same,outcome,[2],inactive
OC[C@H]1O[C@@](CO)(O[C@H]2O[C@H](CO)[C@@H](O)[C@H](O)[C@H]2O)[C@@H](O)[C@@H]1O,AC50,[1],inconclusive: 50 µM
CC(=O)O[C@H]1C[C@@H]2CC[C@@]1(C)C2(C)C,AC50,[3],inconclusive: 50 µM
same,outcome,[2],inactive
CCO[Si](CC)(OCC)OCC,outcome,[1],inactive
CC(=O)C1=C(C)[C@@H]2C[C@@]3(C1)[C@H](C)CC[C@H]3C2(C)C,AC50,[1],active: 12.4 µM
CCCCCCCCCCCCN1CCOCC1,AC50,[1],active: 50 µM
CCCCCCC(=O)O,AC50,[1],inconclusive: 50 µM
same,outcome,[4],inactive
CC(=O)C1C(=O)C=C(C)OC1=O (centres undefined),AC50,[4],inconclusive: 50 µM
CCCCCCOc1ccc(O)cc1,AC50,[4],active: 11.9 µM

# An excerpt of these results, with bars between the fields:
smiles | measurement | setting | value
CC(=O)C1=C(C)[C@@H]2C[C@@]3(C1)[C@H](C)CC[C@H]3C2(C)C | AC50 | [1] | active: 12.4 µM
CCCCCCCCCCCCN1CCOCC1 | AC50 | [1] | active: 50 µM
CCCCCCC(=O)O | AC50 | [1] | inconclusive: 50 µM
same | outcome | [4] | inactive
